Data taken from the M2OR odorant receptor database.
The other results are listed elsewhere or left out. Calls are pooled over several reports, among them a noisy single-well screen.

Experiments:
Conditions in all cases: stereoisomer not certain
O52R1 = tested on: T1, O52R1
T1 sequence (whole entry): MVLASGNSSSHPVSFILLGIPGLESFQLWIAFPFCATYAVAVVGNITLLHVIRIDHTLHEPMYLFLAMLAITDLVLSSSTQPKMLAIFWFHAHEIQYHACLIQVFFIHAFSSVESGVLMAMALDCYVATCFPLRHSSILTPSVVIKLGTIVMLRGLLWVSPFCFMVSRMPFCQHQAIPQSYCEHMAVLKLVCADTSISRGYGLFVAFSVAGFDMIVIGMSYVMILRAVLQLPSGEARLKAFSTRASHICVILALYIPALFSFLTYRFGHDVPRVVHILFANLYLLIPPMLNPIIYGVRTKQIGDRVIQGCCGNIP
Outline: (§1)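 Transient luciferase assays in mammalian cell lines were common, though methods varied by source. The values come from published papers and their supplementary material, with extra details from the original authors when needed. Responsive refers to a measured signal the original authors judged statistically different from baseline, and non-responsive (inactive) to the remainder.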

O52W1 = tested on: T2, O52W1
T2 sequence (whole entry): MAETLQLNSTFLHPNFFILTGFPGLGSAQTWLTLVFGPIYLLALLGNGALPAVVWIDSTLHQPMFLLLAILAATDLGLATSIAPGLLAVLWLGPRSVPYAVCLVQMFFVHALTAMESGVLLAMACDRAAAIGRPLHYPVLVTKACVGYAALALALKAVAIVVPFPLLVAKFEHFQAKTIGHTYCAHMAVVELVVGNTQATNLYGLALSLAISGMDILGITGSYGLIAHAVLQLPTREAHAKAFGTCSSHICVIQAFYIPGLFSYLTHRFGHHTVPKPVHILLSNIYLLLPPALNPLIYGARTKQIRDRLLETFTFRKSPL
Outline: as §1

O56A3 = tested on: T3, O56A3
T3 sequence (whole entry): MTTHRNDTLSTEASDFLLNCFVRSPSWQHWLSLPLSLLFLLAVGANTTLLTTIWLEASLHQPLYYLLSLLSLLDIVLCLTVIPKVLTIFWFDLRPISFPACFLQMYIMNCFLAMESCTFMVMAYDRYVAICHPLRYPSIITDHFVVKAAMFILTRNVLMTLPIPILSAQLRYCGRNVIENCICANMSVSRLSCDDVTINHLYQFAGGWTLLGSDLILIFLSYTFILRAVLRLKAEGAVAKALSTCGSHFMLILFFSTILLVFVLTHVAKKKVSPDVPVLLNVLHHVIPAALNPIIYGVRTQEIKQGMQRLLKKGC
Outline: as §1

O56B1 = tested on: T4, O56B1
T4 sequence (whole entry): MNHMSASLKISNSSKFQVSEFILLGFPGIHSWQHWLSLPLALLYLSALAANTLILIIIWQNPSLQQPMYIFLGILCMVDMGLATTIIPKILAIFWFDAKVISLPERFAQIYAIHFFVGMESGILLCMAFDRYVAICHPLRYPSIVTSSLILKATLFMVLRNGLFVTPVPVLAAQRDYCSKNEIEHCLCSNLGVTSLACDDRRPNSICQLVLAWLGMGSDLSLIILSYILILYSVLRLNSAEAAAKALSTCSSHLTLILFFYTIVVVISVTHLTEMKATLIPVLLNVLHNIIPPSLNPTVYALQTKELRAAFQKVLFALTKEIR
Outline: as §1

O56B4 = tested on: T5, O56B4
T5 sequence (whole entry): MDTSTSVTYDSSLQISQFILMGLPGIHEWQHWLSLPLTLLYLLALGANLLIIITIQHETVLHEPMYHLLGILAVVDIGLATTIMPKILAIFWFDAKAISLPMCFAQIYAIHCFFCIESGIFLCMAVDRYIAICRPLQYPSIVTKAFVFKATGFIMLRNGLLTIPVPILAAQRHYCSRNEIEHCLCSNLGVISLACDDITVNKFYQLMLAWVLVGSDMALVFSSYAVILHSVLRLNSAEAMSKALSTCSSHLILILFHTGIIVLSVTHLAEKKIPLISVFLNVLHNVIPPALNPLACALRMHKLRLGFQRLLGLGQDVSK
Outline: as §1

O5AC2 = tested on: T6, O5AC2
T6 sequence (whole entry): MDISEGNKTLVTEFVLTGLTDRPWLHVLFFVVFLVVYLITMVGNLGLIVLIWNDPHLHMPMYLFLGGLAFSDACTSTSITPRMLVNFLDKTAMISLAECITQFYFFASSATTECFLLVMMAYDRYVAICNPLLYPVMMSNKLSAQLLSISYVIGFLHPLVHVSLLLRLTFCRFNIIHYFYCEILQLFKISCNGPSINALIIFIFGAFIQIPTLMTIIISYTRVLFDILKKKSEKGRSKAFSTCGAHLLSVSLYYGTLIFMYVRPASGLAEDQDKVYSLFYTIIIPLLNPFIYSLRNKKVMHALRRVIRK
Outline: as §1

O5AK2 = tested on: T7, O5AK2
T7 sequence (whole entry): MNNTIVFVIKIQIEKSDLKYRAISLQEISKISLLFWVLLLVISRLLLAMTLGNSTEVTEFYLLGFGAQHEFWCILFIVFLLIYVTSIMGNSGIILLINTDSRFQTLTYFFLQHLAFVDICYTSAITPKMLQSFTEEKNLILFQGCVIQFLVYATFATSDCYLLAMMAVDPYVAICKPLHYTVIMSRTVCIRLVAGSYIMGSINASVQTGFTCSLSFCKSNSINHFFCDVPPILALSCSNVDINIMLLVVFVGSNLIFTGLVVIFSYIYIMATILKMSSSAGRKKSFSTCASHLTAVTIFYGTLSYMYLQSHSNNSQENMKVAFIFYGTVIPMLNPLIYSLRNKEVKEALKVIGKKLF
Outline: as §1

O5AK3 = tested on: T8, O5AK3
T8 sequence (whole entry): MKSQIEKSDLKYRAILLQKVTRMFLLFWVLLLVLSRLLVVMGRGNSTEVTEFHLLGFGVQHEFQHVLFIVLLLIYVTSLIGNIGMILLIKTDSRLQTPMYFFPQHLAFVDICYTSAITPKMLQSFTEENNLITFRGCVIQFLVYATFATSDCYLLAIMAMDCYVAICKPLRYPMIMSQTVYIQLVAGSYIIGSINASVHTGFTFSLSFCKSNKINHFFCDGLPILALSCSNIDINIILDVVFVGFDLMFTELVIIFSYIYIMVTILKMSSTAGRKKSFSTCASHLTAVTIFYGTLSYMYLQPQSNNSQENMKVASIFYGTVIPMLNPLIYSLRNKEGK
Outline: as §1

O5AL1 = tested on: T9, O5AL1
T9 sequence (whole entry): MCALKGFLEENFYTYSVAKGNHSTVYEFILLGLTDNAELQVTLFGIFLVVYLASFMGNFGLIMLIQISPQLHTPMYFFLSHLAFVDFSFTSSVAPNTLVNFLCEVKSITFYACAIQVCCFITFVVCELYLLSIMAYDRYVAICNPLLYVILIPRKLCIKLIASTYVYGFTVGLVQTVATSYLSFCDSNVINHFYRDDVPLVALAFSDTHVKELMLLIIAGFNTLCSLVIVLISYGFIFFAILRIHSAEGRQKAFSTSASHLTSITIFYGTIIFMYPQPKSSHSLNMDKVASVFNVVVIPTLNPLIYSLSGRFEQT
Outline: as §1

O5AP2 = tested on: T10, O5AP2
T10 sequence (whole entry): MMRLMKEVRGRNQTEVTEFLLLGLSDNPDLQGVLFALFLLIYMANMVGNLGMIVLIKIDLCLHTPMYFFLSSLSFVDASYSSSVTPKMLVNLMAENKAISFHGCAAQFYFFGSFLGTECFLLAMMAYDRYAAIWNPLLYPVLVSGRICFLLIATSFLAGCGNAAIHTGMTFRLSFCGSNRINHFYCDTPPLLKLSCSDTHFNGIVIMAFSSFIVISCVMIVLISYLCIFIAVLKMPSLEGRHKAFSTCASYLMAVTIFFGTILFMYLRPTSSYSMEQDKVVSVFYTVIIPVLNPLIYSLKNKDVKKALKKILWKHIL
Outline: as §1

Measured: odorant receptor agonist call;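 note: active if original authors judged signal statistically different from baseline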

CCCCOC(C)=O
inactive: all assays above

CCC(C)=O
inactive: all assays above

CS
inactive: all assays above
